Reference: article PMC12058595

Each sequence was assayed against T1, His6-Zur (Synechocystis sp. PCC 6803) (UniProt P73084) (assay: EMSA). Details: 0, 0.3, 0.6 ug Zur, 30 ng DNA; 10 mM Tris (pH not stated), 50 mM KCl, 1 mM DTT, 5% glycerol, BSA in lanes without Zur; room temperature 20 min; 6% native PAGE in TBE at 4 C, SYBR Safe stain; recombinant protein; residues 1-138; protein details: N-terminal His6 (pET28a, NdeI/XhoI); probe letters rebuilt from the primers and the genome.
T1 sequence (looked up): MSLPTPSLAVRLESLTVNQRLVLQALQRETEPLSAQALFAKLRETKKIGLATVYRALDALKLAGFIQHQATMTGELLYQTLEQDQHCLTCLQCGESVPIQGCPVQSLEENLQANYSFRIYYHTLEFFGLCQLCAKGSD
“ACTAATACTACTCAATTCTCGGTGGGGCAAATTGGGAATAATTACCCCTTTGTCCGTATCTCGGCCCCGACCTTCCGCCAAAAATAGCAGGGTATCCGCCACCCGGGTTAAACTTTCTGCTTCCCTCAGCCGCAAACGACGGTTAAGTTGCCGCAGACGGCGAGCAATGATCTGGGCTAAACGAATGCCCGCCATGGGCTCTGTTTGGAGAAAATTGTAAAATTCCGGAGCTGGTACACTGCACACTTCCGCCGGGGTAAGGGTGATGACGTCGGTGGAGCGGGGAGCCTCTTCGATCGCCGCCATTTCCCCGACAATCTCTCCCCGGCCGACAATGTTGAGGGTTACTTCCCGACCATCCACATTATGGGTGCGAATTTTGACCCAGCCATCCATGACGAAATAAACTGAGCCGCCCCAGTCATGTTCGAGGAGAATAACTTGGTTGGC (double strand) [sll1371 (sycrp1) promoter]”: binds.
“ACTCACCGTAATATCCATGGCATCTGCCACCGGAGCATCCTCAACTTGACCATTTTGCCCAACCTGTTCAACAGCGGGCTGACAGCCTAGGGTGCTCAAACCCAGAACAAAAGCAACACCAAGGGGTTGGACAAAGCGGGGAACAGCGGGGAAAATGAACATTACCGATGTGCAATACAGTGAAGATCAAGCTGATGGGAAATTTATCCCTTTGGCATTAGGACAATAAACGATAATCATTATCATTGCATAATTCCTCCACCTTGTCATGAGTCTTCCCACTCCTTCCCTTGCCGTTCGCCTAGAGTCCCTCACAGTCAACCAAAGACTGGTGCTCCAAGCTTTGCAAAGGGAAACGGAGCCCCTGTCGGCCCAAGCCCTCTTCGCCAAACTGCGGGAA (double strand) [slr2043 (znuA) promoter]”: binds.
“ATCAGCGGTCTCCAAAATCAAGAATCAAACAAAGTAACTATTGGGTTAGTCTAGTACGGCTAATGCACCCGACTTCCCGGAACCCAAGTTAATTCCCGCCGGGGCATTTTAGTACGTTGAATAAAACTTTTCACCGCTAATATCGGTACAGAAAAATTGATTACGTCCTGGGCGAGTCCACAGACATCGCGTTCCCCTGTGGGGGCAATTACGGTAACGGCTCATAAATCTTTGTTAAAGATTACTTAACCCGTCAGTAAAATGCCGTAACACTAATTACCTTTTCCCCTTACTCCAGAGGAGAACAGCAGCGGCAAGCCACCAATCTCTGGTTTTTGGAAAGCCGCCCCTGGACTATGGAAAAAGTAGTTACTTGTTAAGTATAGTAACAGAAAAAGCTTTTCTGGCAAGATTTCTGCTTCTGGAGTTGGGGGTATCCTCTGGAAATTTAC (double strand) [sll1566 (GGPS) promoter]”: binds.
“GATAGGGAAAAGGGGCTGAGGCAATTTGTCATTGGCACCGGCGGCAAAAGTCTTTATCCTTTCAAAACCGTGCGCCCCAACAGTGAAGTTCAGGCAATGGGAGTTTATGGAGTGCTGAAAATGGAACTCCAATCCAACAGCTACCGCTGGCAATTCCTAACCGCCAACACCGACGAATTCAATGAACAGGGGAAGGATTTATGTCATTAAAGGGGGCAATCATGCCATTACTGGGGCCCTTTGCCATGGCCCAAAACCAGGAAAATACTAATAAATTCCATCACCCATTCTAATTCTCCTTTGCGGCAAACCTGCGCTAAGCTTATTCGTGAGCATTTCTCGGTTGTACCTATGGACTTTTCTAGTAACGTTGCAGCGCAACTCAATGCGGGGACAATTTTGCCAGAGGGCATTGTTATTGTCACTCTCCTCCTTGTGCTAATTGTTGATTTGATTG (double strand) [sll0223 (ndhB) promoter]”: binds.
“GATTTAGGTTCAGCAAAATGGCCATCTACTTATCATAATCACTGGCGATCGCCAAGCTTTGTTTTTGTCCTCCGGAAATATTTGCCCCTACCGCACCGAGAATCGTTTCGTATTGCTCGGGAAATTGATTAACAAATCACGGGCATGGATAATTTGTCAAGCTAAAGTCACCTTAGAAAGGTGTATCTCAGGCAAGCTTAAAAATATAAATAACGTCAATTTTACAAAAAAAATGCTAGGGGAATATTAAGAGAACATTAAGGTTGTTGAAAATAGCTAAAAATAATTAAAATTTGTATGATTTTGACCAAAAGTGAACTTTGTGTTATGGTTACAGGGCGTGGTTGACTCGAGTTCAATACAGAACTCAAGGGCTCCGGGTAAATGTTTAAATTTTTGTAAAATCTGTAAAGCATTAATAAAAAACTTTTCCAAAAATTTGGATTTTACCTCAATCACT (double strand) [sll0723 promoter]”: binds.
“GTAACTCCTCGGCACTGAGATGTTCCCCCTCCGGCAAATTTTGAAAAATGGTGAGGATTTTTTCCCGCTGGGGAGTCAGTCGCCAACCACGGGCATTAAGTTCGGCTTTGAGGGAATCGGCGGTGTAGGACATGTTCTATGGGGGCGCTTAGAAGCAGTCTGGGCGATGGGATCCATCATAGTCCCTTGGCTCAGCAGTTGCAATAGTGGAGTCTTATTGAGAATAGATCCTAGAAAAAGTTTTATTTATCTTCCCCCGTCTGAAAATCTGAACCATGCGACCTTCCGCCCTTATTCCCCCCCAGCGTTATTTTGCCTACCTAACGTGGACCGATATTGAAGCTCTGCCGGATAAGGACAAAACCATTATTATTCAGCCCCTGGGTTCCATTGAACAGCATGGTCCCCATTTACCATTGGTGGTGGATGCAGCCATTTCTGAGGGGGTTTTG (double strand) [sll0567 (fur) promoter]”: binds.
“GTTGATCACTTTGCTATGGGAACAATGCAAATTAATGAGTAGAGTTTAACCCCATACTATTTCTAAAATCAAGCACCATTTCATCCCTTATCCCATTTCTTCAACGATCAGCCATGACTAATCGTTTTTGCTCTTCAATCTATGGGAAATCTATCCCTTGGGAAGTATCTATTGTTACATTTGCCATGATCAAATTCCCTTTTTTGATATAGGTTCAACTCTTTTTAGTTAAGTATCCCTAATTACTTAAGTAGGAGGAAAATCCCGAGTCGTCCCTCAAAAAGCTTTACTCTCAGACTGATTTTCGGTCTAATGTTCTTATTATTAAAATAACATTTAAGGTCATTAGCTCTTAATTTTGGAAGTATTCCTATGGCCGGTGATGGAGATGGCAGGATTTTCTGCGGGCCCTGCTTAAGGGTAAGAAAAAACTGTTTGCTCCGTTTAATGAGTTCAAA (double strand) [sll1291 gene cluster promoter]”: binds.

Where a protein sequence is shown, tags need not be part of it.
